Measurements published in the supplement of paper PMC10849652.
The other results are listed elsewhere or left out.

Sequences of proteins named here, by UniProt entry; tags and fusion partners are left off. A change or cut given only in a name is not applied to a line headed by its entry.
UniProt Q96G74: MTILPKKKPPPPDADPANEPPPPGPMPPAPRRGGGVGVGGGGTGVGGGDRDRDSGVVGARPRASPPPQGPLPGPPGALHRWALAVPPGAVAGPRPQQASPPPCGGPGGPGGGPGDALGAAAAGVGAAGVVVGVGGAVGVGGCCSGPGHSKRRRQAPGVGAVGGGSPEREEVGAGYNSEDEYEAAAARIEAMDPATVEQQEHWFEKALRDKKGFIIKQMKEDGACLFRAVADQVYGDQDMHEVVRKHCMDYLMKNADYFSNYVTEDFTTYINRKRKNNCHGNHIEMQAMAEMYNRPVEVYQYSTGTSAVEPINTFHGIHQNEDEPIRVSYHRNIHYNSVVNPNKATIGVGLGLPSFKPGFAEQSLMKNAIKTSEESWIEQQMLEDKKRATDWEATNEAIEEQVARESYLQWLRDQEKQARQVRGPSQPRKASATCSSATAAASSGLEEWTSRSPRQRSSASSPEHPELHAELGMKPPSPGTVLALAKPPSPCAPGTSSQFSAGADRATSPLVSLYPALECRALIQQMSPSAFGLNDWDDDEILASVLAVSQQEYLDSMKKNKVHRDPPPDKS
UniProt Q9NZT2: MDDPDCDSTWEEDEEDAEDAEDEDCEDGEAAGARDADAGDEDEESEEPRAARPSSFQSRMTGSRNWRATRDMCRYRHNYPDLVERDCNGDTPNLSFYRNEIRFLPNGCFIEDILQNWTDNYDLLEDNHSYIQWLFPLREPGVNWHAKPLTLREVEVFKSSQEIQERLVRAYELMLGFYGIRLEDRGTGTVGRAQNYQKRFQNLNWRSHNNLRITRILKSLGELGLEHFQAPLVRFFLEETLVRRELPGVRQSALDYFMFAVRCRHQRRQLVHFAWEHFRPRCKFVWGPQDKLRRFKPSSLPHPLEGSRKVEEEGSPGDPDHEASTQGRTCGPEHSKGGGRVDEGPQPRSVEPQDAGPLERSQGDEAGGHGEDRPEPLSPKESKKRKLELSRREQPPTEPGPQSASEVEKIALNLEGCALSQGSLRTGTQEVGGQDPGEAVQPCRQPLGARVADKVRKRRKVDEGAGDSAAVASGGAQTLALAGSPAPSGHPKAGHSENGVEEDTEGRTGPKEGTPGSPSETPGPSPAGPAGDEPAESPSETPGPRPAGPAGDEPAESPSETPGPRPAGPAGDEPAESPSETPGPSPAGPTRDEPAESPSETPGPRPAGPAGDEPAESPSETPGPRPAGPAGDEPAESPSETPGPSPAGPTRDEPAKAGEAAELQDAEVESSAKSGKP
UniProt Q13310, whole entry, looked up: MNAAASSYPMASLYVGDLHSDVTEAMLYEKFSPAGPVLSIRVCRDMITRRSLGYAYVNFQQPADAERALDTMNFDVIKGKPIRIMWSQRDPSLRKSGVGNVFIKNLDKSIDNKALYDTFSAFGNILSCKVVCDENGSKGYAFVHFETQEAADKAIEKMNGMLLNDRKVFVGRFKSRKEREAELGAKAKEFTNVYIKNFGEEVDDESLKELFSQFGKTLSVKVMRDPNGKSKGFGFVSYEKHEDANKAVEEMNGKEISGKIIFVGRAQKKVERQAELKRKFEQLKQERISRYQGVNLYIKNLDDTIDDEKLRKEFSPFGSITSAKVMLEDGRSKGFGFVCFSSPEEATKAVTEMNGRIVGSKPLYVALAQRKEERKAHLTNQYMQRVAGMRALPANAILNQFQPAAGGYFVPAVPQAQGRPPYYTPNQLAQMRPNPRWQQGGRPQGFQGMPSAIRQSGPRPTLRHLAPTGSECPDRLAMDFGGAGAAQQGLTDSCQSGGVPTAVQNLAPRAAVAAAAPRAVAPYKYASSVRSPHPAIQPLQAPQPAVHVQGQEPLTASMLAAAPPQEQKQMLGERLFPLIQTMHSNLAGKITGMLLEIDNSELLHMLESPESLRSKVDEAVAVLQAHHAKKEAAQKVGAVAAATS
UniProt O75147: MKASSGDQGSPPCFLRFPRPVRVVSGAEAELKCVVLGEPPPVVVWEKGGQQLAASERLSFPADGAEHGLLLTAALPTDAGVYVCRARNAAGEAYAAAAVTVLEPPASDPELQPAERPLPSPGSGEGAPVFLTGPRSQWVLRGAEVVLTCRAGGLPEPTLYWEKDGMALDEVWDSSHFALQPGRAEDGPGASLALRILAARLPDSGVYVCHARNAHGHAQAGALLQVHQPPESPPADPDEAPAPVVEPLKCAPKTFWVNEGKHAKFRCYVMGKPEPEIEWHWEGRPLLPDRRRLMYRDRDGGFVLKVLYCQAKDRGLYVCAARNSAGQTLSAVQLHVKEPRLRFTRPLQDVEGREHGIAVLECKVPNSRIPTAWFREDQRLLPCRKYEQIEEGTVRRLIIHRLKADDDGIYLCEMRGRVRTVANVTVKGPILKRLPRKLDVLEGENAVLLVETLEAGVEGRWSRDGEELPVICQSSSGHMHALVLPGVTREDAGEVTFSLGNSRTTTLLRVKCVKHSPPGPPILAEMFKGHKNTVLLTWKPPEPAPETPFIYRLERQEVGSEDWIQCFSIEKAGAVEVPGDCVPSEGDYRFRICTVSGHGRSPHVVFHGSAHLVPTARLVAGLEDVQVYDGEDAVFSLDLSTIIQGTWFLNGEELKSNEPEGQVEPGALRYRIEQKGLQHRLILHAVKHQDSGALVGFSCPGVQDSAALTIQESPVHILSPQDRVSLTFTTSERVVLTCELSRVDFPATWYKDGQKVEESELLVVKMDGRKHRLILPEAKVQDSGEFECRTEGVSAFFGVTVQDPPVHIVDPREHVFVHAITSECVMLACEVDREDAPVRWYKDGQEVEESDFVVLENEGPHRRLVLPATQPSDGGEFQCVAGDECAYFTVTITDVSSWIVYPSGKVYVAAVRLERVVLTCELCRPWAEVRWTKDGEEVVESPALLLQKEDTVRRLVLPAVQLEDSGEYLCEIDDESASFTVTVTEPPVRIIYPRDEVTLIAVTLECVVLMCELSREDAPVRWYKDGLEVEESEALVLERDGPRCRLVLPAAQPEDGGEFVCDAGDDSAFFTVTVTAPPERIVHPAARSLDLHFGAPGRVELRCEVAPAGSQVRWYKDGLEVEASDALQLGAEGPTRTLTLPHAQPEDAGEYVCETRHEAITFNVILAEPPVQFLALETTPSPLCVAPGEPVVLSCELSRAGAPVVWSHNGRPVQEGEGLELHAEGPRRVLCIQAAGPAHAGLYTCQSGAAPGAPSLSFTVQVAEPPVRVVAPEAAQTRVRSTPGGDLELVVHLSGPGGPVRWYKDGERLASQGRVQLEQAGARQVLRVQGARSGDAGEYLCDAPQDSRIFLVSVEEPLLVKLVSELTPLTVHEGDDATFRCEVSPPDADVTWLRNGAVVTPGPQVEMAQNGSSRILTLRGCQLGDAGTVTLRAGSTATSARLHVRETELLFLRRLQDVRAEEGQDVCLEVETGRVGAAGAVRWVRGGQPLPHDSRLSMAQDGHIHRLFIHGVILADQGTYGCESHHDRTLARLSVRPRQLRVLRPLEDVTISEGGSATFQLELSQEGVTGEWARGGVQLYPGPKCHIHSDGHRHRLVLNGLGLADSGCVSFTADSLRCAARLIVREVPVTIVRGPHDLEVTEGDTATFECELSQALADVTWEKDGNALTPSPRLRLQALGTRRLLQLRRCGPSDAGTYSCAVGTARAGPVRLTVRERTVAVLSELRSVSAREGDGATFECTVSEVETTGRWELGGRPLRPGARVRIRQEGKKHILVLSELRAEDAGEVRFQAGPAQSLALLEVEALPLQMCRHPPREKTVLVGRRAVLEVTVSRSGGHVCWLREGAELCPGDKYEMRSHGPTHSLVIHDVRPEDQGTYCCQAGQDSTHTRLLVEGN
UniProt Q8TEM1: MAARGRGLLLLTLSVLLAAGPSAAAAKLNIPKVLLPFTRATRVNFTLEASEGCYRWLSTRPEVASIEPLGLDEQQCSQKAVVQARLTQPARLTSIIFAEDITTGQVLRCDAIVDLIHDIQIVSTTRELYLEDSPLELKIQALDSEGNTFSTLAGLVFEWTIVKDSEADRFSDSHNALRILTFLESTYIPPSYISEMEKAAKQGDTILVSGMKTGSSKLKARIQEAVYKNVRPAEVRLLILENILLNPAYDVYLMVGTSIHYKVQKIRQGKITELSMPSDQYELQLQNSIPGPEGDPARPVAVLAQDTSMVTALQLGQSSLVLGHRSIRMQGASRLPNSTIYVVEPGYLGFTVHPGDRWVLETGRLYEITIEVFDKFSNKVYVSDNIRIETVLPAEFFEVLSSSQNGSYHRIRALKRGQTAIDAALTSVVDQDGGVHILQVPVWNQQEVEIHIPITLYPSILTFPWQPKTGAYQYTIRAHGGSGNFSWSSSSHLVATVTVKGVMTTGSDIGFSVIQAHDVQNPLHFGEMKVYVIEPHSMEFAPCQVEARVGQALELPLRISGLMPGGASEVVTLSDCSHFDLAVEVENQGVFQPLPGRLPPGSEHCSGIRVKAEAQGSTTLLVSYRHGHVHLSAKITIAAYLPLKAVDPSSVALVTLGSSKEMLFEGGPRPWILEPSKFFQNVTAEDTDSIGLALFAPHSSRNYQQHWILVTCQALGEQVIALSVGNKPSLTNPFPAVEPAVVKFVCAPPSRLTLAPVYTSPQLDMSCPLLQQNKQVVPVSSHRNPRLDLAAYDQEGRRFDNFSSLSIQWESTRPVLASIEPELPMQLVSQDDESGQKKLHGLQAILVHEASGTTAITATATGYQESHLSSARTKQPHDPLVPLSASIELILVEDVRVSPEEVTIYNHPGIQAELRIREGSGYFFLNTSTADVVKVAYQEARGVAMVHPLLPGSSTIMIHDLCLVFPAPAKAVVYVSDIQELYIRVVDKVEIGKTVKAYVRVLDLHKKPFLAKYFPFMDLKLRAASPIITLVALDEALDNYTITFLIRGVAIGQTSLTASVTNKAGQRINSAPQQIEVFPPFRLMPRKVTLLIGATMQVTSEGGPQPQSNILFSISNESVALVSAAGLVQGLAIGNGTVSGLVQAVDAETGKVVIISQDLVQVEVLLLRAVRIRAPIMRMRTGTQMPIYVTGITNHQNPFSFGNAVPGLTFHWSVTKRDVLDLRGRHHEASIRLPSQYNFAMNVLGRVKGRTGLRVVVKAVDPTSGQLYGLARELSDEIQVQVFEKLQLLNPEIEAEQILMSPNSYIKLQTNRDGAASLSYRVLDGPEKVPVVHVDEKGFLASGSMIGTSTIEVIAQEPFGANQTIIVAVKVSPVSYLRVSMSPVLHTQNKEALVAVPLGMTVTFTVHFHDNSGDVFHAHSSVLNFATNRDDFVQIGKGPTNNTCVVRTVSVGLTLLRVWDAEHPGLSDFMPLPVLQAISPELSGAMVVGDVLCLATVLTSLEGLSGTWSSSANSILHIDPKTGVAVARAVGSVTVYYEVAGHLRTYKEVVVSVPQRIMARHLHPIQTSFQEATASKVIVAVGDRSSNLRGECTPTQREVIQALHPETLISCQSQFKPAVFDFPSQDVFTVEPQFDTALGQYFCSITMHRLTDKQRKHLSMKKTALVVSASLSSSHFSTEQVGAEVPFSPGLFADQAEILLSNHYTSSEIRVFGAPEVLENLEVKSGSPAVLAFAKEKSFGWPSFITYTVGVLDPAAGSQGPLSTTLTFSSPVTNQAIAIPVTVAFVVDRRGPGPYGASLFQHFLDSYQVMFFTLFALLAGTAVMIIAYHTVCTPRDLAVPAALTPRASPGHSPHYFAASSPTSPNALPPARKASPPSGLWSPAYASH
UniProt Q9H6K4: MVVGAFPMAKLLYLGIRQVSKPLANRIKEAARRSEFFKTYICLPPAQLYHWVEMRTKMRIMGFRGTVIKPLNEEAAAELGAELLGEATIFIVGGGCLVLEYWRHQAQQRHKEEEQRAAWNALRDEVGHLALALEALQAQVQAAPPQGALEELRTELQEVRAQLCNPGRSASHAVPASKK
UniProt Q8WZ82: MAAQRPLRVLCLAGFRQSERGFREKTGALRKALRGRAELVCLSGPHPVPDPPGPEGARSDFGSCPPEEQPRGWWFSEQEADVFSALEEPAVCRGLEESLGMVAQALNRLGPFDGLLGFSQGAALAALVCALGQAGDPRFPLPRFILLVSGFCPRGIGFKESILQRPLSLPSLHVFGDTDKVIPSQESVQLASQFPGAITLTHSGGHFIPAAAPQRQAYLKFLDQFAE
UniProt Q99571: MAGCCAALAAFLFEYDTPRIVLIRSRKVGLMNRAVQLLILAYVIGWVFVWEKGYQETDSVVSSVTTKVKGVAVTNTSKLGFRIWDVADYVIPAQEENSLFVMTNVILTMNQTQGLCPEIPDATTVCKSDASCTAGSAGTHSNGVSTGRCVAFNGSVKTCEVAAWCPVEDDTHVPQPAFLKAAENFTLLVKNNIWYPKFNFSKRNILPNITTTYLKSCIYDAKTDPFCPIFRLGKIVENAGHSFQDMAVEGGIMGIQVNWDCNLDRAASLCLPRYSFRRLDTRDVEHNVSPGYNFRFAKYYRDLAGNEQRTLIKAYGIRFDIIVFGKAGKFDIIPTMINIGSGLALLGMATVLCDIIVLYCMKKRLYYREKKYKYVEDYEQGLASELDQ

What was measured:
Assay in all cases: log2 fold change, soluble protein after heating vs DMSO (PISA); higher = thermal stabilisation; K562 lysate, 10 uM; active = over 0.2 and 3.5 SD of the protein, either way, in both replicates (recomputed)
erlotinib = compound: C#Cc1cccc(Nc2ncnc3cc(OCCOC)c(OCCOC)cc23)c1 [erlotinib]
Outline: (§1)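 Following dounce homogenisation of K562 pellets in PBS pH 7.4 with 1 mM MgCl2, crude extract at 1 mg/mL protein was incubated for 30 min with 10 μM compound. Aliquots were then heated for 3 min over 48°C-58°C and pooled, NP-40 was added to 0.5% at 4°C, and soluble protein was recovered as the supernatant at 21,000xg for 90 min. Channel-sum-equalised TMTpro 16plex LC-MS/MS quantified this protein. Each value, from duplicates, is a log-two fold change in thermal stability relative to solvent controls.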

[1] = compound: C/C(=N\NC(=O)C1=CC(=CC=C1)S(=O)(=O)N2CCOCC2)/C3=C(C=CC(=C3)Cl)O
Outline: as §1

[2] = compound: C1=CC(=CC=C1C2=NC3=C(N2)C=C(C=C3)C(=O)N)OC4=CC=C(C=C4)Cl
Outline: as §1

[3] = compound: C1=CC2=C(C=CC(=C2)/C=C\3/C(=O)NC(=NCC4=CC=CS4)S3)N=C1
Outline: as §1

[4] = compound: C1=CC2=NC=CN=C2C=C1/C=C/3\C(=O)NC(=O)S3
Outline: as §1

[5] = compound: C1=CC=C(C=C1)C2=NC(=C(N2)C3=CC=NC=C3)C4=CC(=C(C=C4)Cl)O
Outline: as §1

[6] = compound: C1=CC=C2C(=C1)C3=NNC4=CC=CC(=C43)C2=O
Outline: as §1

[7] = compound: C1CCN(C1)C(=O)NC2=CC=CC(=C2)NC3=NC=C(C(=N3)NCCC4=CN=CN4)Br
Outline: as §1

[8] = compound: C1CN(CCC1(CC2=CC=C(C=C2)Cl)N)C3=NC=NC4=C3C=CN4
Outline: as §1

IRAK-1-4 Inhibitor I = compound: C1COCCN1CCN2C3=CC=CC=C3N=C2NC(=O)C4=CC(=CC=C4)[N+](=O)[O-] [IRAK-1-4 Inhibitor I]
Outline: as §1

Measured: log2 fold change

NUP98 (UniProt P52948)
inactive: erlotinib -0.018 | [1] 0.017 | [2] 0.023 | [3] -0.026 | [4] 0.005 | [5] -0.079 | [6] -0.004 | [7] 0.015 | [8] 0.021 | IRAK-1-4 Inhibitor I 0.002

OTUD5 isoform 5 (UniProt Q96G74)
inactive: erlotinib 0.009 | [1] -0.069 | [2] 0.034 | [3] 0.052 | [4] 0.012 | [5] 0.042 | [6] -0.001 | [7] -0.011 | [8] -0.001 | IRAK-1-4 Inhibitor I 0.033

OGFR (UniProt Q9NZT2)
inactive: erlotinib 0.023 | [1] 0.023 | [2] 0.018 | [3] -0.015 | [4] -0.012 | [5] -0.011 | [6] -0.027 | [7] -0.01 | [8] 0.038 | IRAK-1-4 Inhibitor I -0.012

PABPC4 isoform 3 (UniProt Q13310)
inactive: erlotinib -0.007 | [1] -0.032 | [2] -0.022 | [3] 0.005 | [4] -0.01 | [5] -0.003 | [6] 0.024 | [7] -0.014 | [8] 0.001 | IRAK-1-4 Inhibitor I -0.025

PALM3 (UniProt A6NDB9)
inactive: erlotinib -0.033 | [1] -0.044 | [2] -0.012 | [3] 0.006 | [4] 0.009 | [5] -0.016 | [6] -0.076 | [7] -0.002 | [8] 0.042 | IRAK-1-4 Inhibitor I 0.004

ORC4 (UniProt O43929)
inactive: erlotinib 0.02 | [1] 0.059 | [2] -0.037 | [3] -0.042 | [4] -0.019 | [5] -0.035 | [6] 0.031 | [7] 0.052 | [8] 0.026 | IRAK-1-4 Inhibitor I -0.011

NUP43 (UniProt Q8NFH3)
inactive: erlotinib -0.001 | [1] -0.13 | [2] 0.014 | [3] 0.004 | [4] 0.008 | [5] -0.025 | [6] -0.021 | [7] 0.01 | [8] 0.034 | IRAK-1-4 Inhibitor I 0.02

OBI1 (UniProt Q5W0B1)
inactive: erlotinib 0.013 | [1] -0.124 | [2] -0.011 | [3] -0.052 | [4] -0.018 | [5] 0.059 | [6] 0.03 | [7] 0.029 | [8] 0.057 | IRAK-1-4 Inhibitor I -0.03

OGFOD1 (UniProt Q8N543)
inactive: erlotinib 0.008 | [1] 0 | [2] -0.012 | [3] -0.005 | [4] -0.027 | [5] 0.011 | [6] 0.028 | [7] -0.014 | [8] -0.032 | IRAK-1-4 Inhibitor I 0.02

OXNAD1 (UniProt Q96HP4)
inactive: erlotinib -0.056 | [1] 0.055 | [2] -0.036 | [3] 0.037 | [4] -0.02 | [5] -0.015 | [6] -0.026 | [7] 0.043 | [8] -0.055 | IRAK-1-4 Inhibitor I -0.069

OSBPL3 isoform 2 (UniProt Q9H4L5)
inactive: erlotinib 0.292 | [1] 0.206 | [2] 0.038 | [3] 0.079 | [4] -0.04 | [5] 0.189 | [6] 0.135 | [7] -0.001 | [8] -0.018 | IRAK-1-4 Inhibitor I -0.183

OTUD7B (UniProt Q6GQQ9)
inactive: erlotinib 0.028 | [1] -0.06 | [2] 0.075 | [3] -0.026 | [4] -0.017 | [5] -0.006 | [6] -0.076 | [7] -0.002 | [8] 0.032 | IRAK-1-4 Inhibitor I -0.039

NUP54 (UniProt Q7Z3B4)
inactive: erlotinib -0.01 | [1] -0.027 | [2] 0.033 | [3] 0.027 | [4] -0.015 | [5] -0.059 | [6] -0.01 | [7] -0.026 | [8] -0.01 | IRAK-1-4 Inhibitor I -0.026

OGFOD3 (UniProt Q6PK18)
inactive: erlotinib -0.026 | [1] 0.069 | [2] -0.005 | [3] -0.007 | [4] -0.032 | [5] -0.035 | [6] -0.047 | [7] -0.034 | [8] -0.018 | IRAK-1-4 Inhibitor I -0.105

OBSL1 (UniProt O75147)
inactive: erlotinib -0.007 | [1] -0.1 | [2] -0.004 | [3] 0.03 | [4] -0.09 | [5] 0.032 | [6] 0.013 | [7] -0.005 | [8] 0.046 | IRAK-1-4 Inhibitor I -0.037

NUP210 (UniProt Q8TEM1)
inactive: erlotinib -0.018 | [1] -0.019 | [2] -0.049 | [3] 0.036 | [4] -0.004 | [5] -0.046 | [6] -0.157 | [7] -0.008 | [8] -0.001 | IRAK-1-4 Inhibitor I -0.009

PABPC1 (UniProt P11940)
inactive: erlotinib -0.002 | [1] 0.016 | [2] 0.006 | [3] 0.034 | [4] -0.011 | [5] 0.004 | [6] 0.048 | [7] 0.009 | [8] -0.059 | IRAK-1-4 Inhibitor I -0.011

PAK2 (UniProt Q13177)
inactive: erlotinib -0.029 | [1] -0.009 | [2] -0.016 | [3] -0.004 | [4] -0.016 | [5] 0.002 | [6] 0.034 | [7] -0.01 | [8] -0.005 | IRAK-1-4 Inhibitor I -0.021

OPA3 (UniProt Q9H6K4)
inactive: erlotinib 0.007 | [1] -0.025 | [2] -0.186 | [3] 0.074 | [4] -0.035 | [5] -0.04 | [6] -0.106 | [7] -0.042 | [8] 0.144 | IRAK-1-4 Inhibitor I 0.075

PACSIN3 (UniProt Q9UKS6)
inactive: erlotinib 0.044 | [1] 0.102 | [2] -0.029 | [3] -0.027 | [4] 0.005 | [5] 0.047 | [6] -0.115 | [7] 0.076 | [8] 0.089 | IRAK-1-4 Inhibitor I -0.004

PAAF1 (UniProt Q9BRP4)
inactive: erlotinib -0.008 | [1] 0.031 | [2] 0.012 | [3] 0.007 | [4] 0.014 | [5] -0.014 | [6] -0.004 | [7] 0.018 | [8] 0.018 | IRAK-1-4 Inhibitor I -0.003

OGDH (UniProt Q02218)
inactive: erlotinib -0.003 | [1] 0.037 | [2] 0.03 | [3] 0.036 | [4] -0.008 | [5] 0.002 | [6] 0.006 | [7] -0.027 | [8] 0.022 | IRAK-1-4 Inhibitor I 0.01

PAICS (UniProt P22234)
inactive: erlotinib -0.02 | [1] -0.001 | [2] 0.013 | [3] -0.048 | [4] -0.02 | [5] -0.005 | [6] 0.012 | [7] 0.001 | [8] -0.03 | IRAK-1-4 Inhibitor I 0.014

PARD6B (UniProt Q9BYG5)
inactive: erlotinib 0.018 | [1] -0.01 | [2] -0.003 | [3] 0.005 | [4] 0.029 | [5] 0.009 | [6] 0.019 | [7] 0.039 | [8] 0.023 | IRAK-1-4 Inhibitor I -0.036

NUP85 (UniProt Q9BW27)
inactive: erlotinib 0.015 | [1] -0.007 | [2] -0.06 | [3] -0.07 | [4] 0.003 | [5] 0.016 | [6] 0.013 | [7] 0.038 | [8] -0.005 | IRAK-1-4 Inhibitor I 0.022

PANK4 (UniProt Q9NVE7)
inactive: erlotinib 0.013 | [1] -0.012 | [2] 0.003 | [3] 0.051 | [4] 0.033 | [5] 0.003 | [6] -0.052 | [7] -0.002 | [8] 0.018 | IRAK-1-4 Inhibitor I 0.018

OVCA2 (UniProt Q8WZ82)
inactive: erlotinib 0.098 | [1] -0.31 | [2] -0.048 | [3] -0.095 | [4] -0.059 | [5] 0.089 | [6] -0.074 | [7] -0.072 | [8] -0.063 | IRAK-1-4 Inhibitor I 0.005

PACSIN1 (UniProt Q9BY11)
inactive: erlotinib -0.042 | [1] -0.055 | [2] -0.019 | [3] 0.019 | [4] 0.032 | [5] -0.118 | [6] 0.044 | [7] -0.027 | [8] -0.019 | IRAK-1-4 Inhibitor I 0.041

P2RX4 isoform 2 (UniProt Q99571)
inactive: erlotinib 0.066 | [1] -0.056 | [2] 0.077 | [3] -0.154 | [4] 0.057 | [5] 0.066 | [6] -0.093 | [7] 0.035 | [8] 0.057 | IRAK-1-4 Inhibitor I -0.029

PAPSS1 (UniProt O43252)
inactive: erlotinib -0.021 | [1] -0.038 | [2] 0.003 | [3] -0.013 | [4] 0.003 | [5] 0.001 | [6] -0.03 | [7] -0.018 | [8] -0.001 | IRAK-1-4 Inhibitor I 0.007
